Results are given in words; binding and its absence hold for the method and conditions named. In cells and extracts the contact can be indirect. Some results given as binding are weak or reduced against the parent protein; the word gives no strength.
Target: T1, Receptor-interacting serine/threonine-protein kinase 1 (mouse (endogenous in J774A.1)) (UniProt Q60855)
T1 sequence: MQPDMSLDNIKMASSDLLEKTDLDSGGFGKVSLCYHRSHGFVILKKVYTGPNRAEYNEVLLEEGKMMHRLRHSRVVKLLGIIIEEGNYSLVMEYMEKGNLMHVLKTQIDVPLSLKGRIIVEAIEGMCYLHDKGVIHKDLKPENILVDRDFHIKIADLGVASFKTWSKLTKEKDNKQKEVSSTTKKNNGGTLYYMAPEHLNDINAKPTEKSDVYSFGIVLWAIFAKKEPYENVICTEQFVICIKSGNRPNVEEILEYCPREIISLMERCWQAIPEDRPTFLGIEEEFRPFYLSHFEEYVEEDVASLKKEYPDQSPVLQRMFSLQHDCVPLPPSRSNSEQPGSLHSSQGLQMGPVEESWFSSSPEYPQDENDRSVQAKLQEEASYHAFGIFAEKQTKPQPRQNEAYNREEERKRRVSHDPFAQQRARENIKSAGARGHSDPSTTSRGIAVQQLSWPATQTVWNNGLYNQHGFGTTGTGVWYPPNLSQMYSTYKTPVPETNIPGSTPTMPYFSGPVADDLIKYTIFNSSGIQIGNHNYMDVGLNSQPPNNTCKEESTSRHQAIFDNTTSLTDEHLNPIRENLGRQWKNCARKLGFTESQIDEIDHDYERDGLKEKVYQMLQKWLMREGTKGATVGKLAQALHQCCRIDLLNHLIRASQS
Assay: co-IP; anti-RIP1 (1 ug) with protein A/G magnetic beads, overnight at 4°C, from lysates of J774A.1 cells infected with H. pylori WT, ΔPldA or ΔPldA-in (MOI 100, 3 hr); IP lysis buffer 50 mM Tris-HCl pH 7.4, 150 mM NaCl, 0.5% NP40; detection by immunoblotting

B1: Fas Associated Via Death Domain (protein, UniProt Q61160 1-205)
chain: MDPFLVLLHSLSGSLSGNDLMELKFLCRERVSKRKLERVQSGLDLFTVLLEQNDLERGHTGLLRELLASLRRHDLLQRLDDFEAGTATAAPPGEADLQVAFDIVCDNVGRDWKRLARELKVSEAKMDGIEEKYPRSLSERVRESLKVWKNAEKKNASVAGLVKALRTCRLNLVADLVEEAQESVSKSENMSPVLRDSTVSSSETP
For B1, the binding was “binds”.

From article PMC11457642
